For some assays here: Construct, isoform or probe ends are uncertain for at least one entry.

For data set [1], the system named is thrombin (TB). Description: binding assay. Conditions: PBS (10 mM sodium phosphate, 150 mM NaCl, pH 7.40), 10 uM BSA, room temperature, 2 h; commercial protein; single-stranded DNA.
Data set [2] concerns thrombin (TB). Briefly: competition (QD-FRET reporter strand displacement). The note with it: 2 nM QD-TBA20, DNA12-SM reporter displaced, I605/I665 rises to ~3.1 at 100 nM TB, 500 pM TB detectable; TBA 5' C6-amine, cyclooctyne-clicked to DHLA-PEG600-N3 capped CdSe-ZnS QD; PBS (10 mM sodium phosphate, 150 mM NaCl, pH 7.40), 10 uM BSA, room temperature, 2 h; commercial protein; label: QD (donor) on TBA, Atto647N (acceptor) on DNA12-SM.

By Kd is commonly meant the equilibrium constant for the complex coming apart. A low value points to higher affinity. In the case of “AGTCCGTGGTAGGGCAGGTTGGGGTGACT [29-mer anti-thrombin aptamer]”, in the data set with thrombin (TB) [1], the Kd is 500 pM. That is a sub-nanomolar value.

Consider “TTAGTCCGTGGTAGGGCAGGTTGGGGTGACT / CTACCACAGACT [QD-TBA20 pre-hybridized with DNA12-SM reporter]”, for which, in the data set on thrombin (TB) [2], the binding result is “binds”.

Values taken from PMC3814187.
